Source: article PMC12120661, “Synthesis and Biological Evaluation of 4‑(4-Nitrophenyl)‑1H‑1,2,3-triazole Derivatives as Antitrypanosomal Agents” (ACS Omega, 2025)

System: MRC-5SV2 (human lung fibroblast) cells
Assay: Preliminary cytotoxicity assay, resazurin
Type: cell-based
Details: read-out: Reference validation IC50 (MRC-5)
Procedure: MRC-5SV2 cell cytotoxicity was assessed following the methodology outlined in earlier literature. Briefly, cells at a concentration of 1.5 × 10^5 cells/mL were cultured with compound dilutions at 37 °C and 5% CO2. Cell growth was compared to untreated-control wells (100% cell growth) and medium-control wells (0% cell growth). After 3 days of incubation, cell viability was fluorometrically assessed following the addition of 50-μL resazurin per well. Fluorescence was measured after 4 h at 37 °C (λex 550 nm, λem 590 nm). The results were expressed as the percentage reduction in cell growth/viability compared to control wells, and an IC50 value was determined.

CC/C(=C(\c1ccccc1)c1ccc(OCCN(C)C)cc1)c1ccccc1 [tamoxifen, reference compound]
IC50: 11.4 µM
